Source: PubChem BioAssay AID2685 (National Center for Advancing Translational Sciences (NCATS), 2010)
The whole screen tested about 320,000 compounds, of which about 2,100 (0.66%) were called active. This list was built around the results that the source calls inconclusive (neither active nor inactive); the mix of calls is not that of the screen. The call rests on the fitted dose curve; in most records, active means well fitted inhibition curve with a large enough effect in the signal ratio, with a control signal flat (not every such curve was filed as active); inconclusive means small, poorly fitted or top-dose-only effect, or effect the other way, or a change in a side signal; inactive means flat fitted curve, though single readings scatter; the % refers to the signal ratio. Where the call is inconclusive, the potency comes from a doubtful curve fit.

Assay: qHTS Assay for Lipid Storage Modulators in Drosophila S3 Cells
Conditions: BODIPY lipid droplet fluorescence, 18-24 h, cells fed with added oleic acid; lipid storage change, negative = inhibition: at 46.1 µM (top of the series) unless noted
Procedure, shortened: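 Drosophila S3 cells loaded with oleic acid (400 uM, as added) and compounds at several concentrations; lipid droplets imaged by 488-nm laser-scanning cytometry, 500–530 nm intensity and object ratio to cell channel. Percent activity normalized to 20 uM Triacsin C.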
On the % scale 0 is the no-effect control and ±100 the full control effect; potency means the concentration at half of the fitted maximal effect.

Row | SMILES | Potency | lipid storage change, negative = inhibition | outcome
1 | CC(C)Cn1c(-c2cccs2)nc2ccccc21 | inconclusive: 0.103 µM [activator, full curve] |  | 
2 | Cc1ccc(C2c3c(oc4ccccc4c3=O)C(=O)N2CCCN2CCOCC2)o1 (configuration not stated) |  | inconclusive: 21.5% | 
3 | O=[N+]([O-])c1ccc(Cl)cc1Sc1ccccn1 |  | inconclusive: -2.8% | 
4 | CCOc1ccc(C(=O)COC(=O)c2c(-c3ccccc3)noc2C)cc1 | inconclusive: 7.31 µM [activator, partial curve, poor fit] |  | 
5 | Cc1ccc(CNn2cnnc2SCC(=O)NC(C)(C)C)cc1 |  | inconclusive: 23.6% | 
6 | COc1cc(NC(=O)C(C)Oc2ccccc2)c(OC)cc1NC(=O)c1ccccc1 (configuration not stated) | inconclusive: 20.6 µM [cytotoxic, single point] |  | 
7 | O=C(c1c[nH]c2ccccc12)N1CCN(c2ccccc2)CC1 |  | inconclusive: 8.59% | 
8 | O=C(NCc1cccs1)C1CCCN1S(=O)(=O)c1ccccc1F (configuration not stated) |  | inconclusive: -30.9% | 
9 | O=C(c1ccccc1)N1CCN(c2ccc(Cl)cc2)CC1 | inconclusive: 16.4 µM [cytotoxic, partial curve] |  | 
10 | Cc1ccc(N2CC(C(=O)Nc3nnc(SCCN4CCOCC4)s3)CC2=O)cc1 (configuration not stated) |  | inconclusive: -0.166% | 
11 | CC1=NN(c2nc(-c3ccc(C)cc3)cs2)C(=O)C1N=Nc1ccccc1O (configuration not stated) |  | inconclusive: -31.4% | 
12 | O=C(OCCN1CCOCC1)c1ccc2c(c1)OCCO2 | inconclusive: 1.3 µM [falling, full curve] |  | 
13 | COc1cc(/C=N/NC(=O)c2cc3ccccc3cc2O)ccc1OCCN1CCCCC1 |  | inconclusive: -71.6% | 
14 | CCc1ccc(NC(=O)c2cc(C(C)C)on2)cc1 |  | inconclusive: 22.4% | 
15 | COc1ccc(-n2c(-c3ccc(Br)cc3)nc(=S)c3c2CCCC3)cc1 |  | inconclusive: 0.706% | 
16 | CCOc1nnc(C)c2c(C)n(-c3cccc(OC)c3)nc12 | inconclusive: 0.651 µM [activator, partial curve, poor fit] |  | 
17 | CCCNC(=O)NC(C(=O)OC)C12CC3CC(CC(C3)C1)C2 (configuration not stated) |  | inconclusive: 10.6% | 
18 | COc1ccc2nc(NC(=O)c3cccc(OCc4c(C)noc4C)c3)sc2c1 |  | inconclusive: 21.1% | 
19 | CCNC(=S)N1CCN(CCN2C(=O)c3cccc4cccc(c34)C2=O)CC1 |  | inconclusive: 1.82% | 
20 | CC1(C)OC(=O)N(NCc2ccccc2)C1(C)O (configuration not stated) |  | inconclusive: 4.5% | 
21 | CCc1c(C)sc(NC(=O)CC#N)c1C#N | inconclusive: 29.1 µM [activator, single point] |  | 
22 | CCOc1cc(NC(=O)c2cnccn2)c(OCC)cc1NC(=O)c1cccc(F)c1 |  | inconclusive: -26% | 
23 | Cc1ccc(S(=O)(=O)Nc2ccc3nc(C)sc3c2)c(C)c1 | active: 10.3 µM |  | 
24 | Clc1ccccc1CSc1cc2c(nn1)-c1ccccc1CC2 |  | inconclusive: 12.6% | 
25 | COc1ccccc1NC(=O)C(C)Sc1nc(-c2ccccc2)cn1N (configuration not stated) |  | inconclusive: 29.3% | 
26 | Cc1cnc(C(=O)Nc2ccc(OC(F)(F)F)cc2)cn1 | inconclusive: 6.51 µM [activator, single point] |  | 

A second format for five compounds above:

| Row | SMILES | Potency | lipid storage change, negative = inhibition | outcome |
| --- | --- | --- | --- | --- |
| 2 | Cc1ccc(C2c3c(oc4ccccc4c3=O)C(=O)N2CCCN2CCOCC2)o1 (configuration not stated) |  | inconclusive: 21.5% |  |
| 8 | O=C(NCc1cccs1)C1CCCN1S(=O)(=O)c1ccccc1F (configuration not stated) |  | inconclusive: -30.9% |  |
| 10 | Cc1ccc(N2CC(C(=O)Nc3nnc(SCCN4CCOCC4)s3)CC2=O)cc1 (configuration not stated) |  | inconclusive: -0.166% |  |
| 12 | O=C(OCCN1CCOCC1)c1ccc2c(c1)OCCO2 | inconclusive: 1.3 µM [falling, full curve] |  |  |
| 21 | CCc1c(C)sc(NC(=O)CC#N)c1C#N | inconclusive: 29.1 µM [activator, single point] |  |  |

(list continues)

Row | SMILES | Potency | lipid storage change, negative = inhibition | outcome
27 | COc1ccc(N2CCN(C(=O)c3cccs3)CC2)cc1 |  | inconclusive: 0.33% | 
28 | CC(=O)N1CCN(c2ccccc2NC(=O)c2cccs2)CC1 |  | inconclusive: -30.7% | 
29 | Cc1cccc(OCC(=O)NCCNC(=O)c2ccccn2)c1 |  | inconclusive: 284% | 
30 | CCC(O)(CC)C(=O)N/N=C/c1cc(Br)cc(Br)c1O |  | inconclusive: 13.4% | 
31 | CCN(/N=C/c1ccccc1)c1cc(=O)n(C)c(=O)[nH]1 |  | inconclusive: 12.4% | 
32 | Cc1ccccc1Nc1nnc(SCC(=O)c2ccc(O)cc2O)s1 | inconclusive: 13 µM [activator, partial curve, poor fit] |  | 
33 | Cc1cc(C(=O)N/N=C/c2cc(Br)c(Br)o2)n[nH]1 | inconclusive: 6.51 µM [activator, single point] |  | 
34 | CCc1nn(CCCC(=O)NCc2ccc(C)cc2)c(=O)c2cc3occc3n12 |  | inconclusive: 12.1% | 
35 | CCOC(=O)C1=C(O)CSC1=Nc1cccc2ccccc12 |  | inconclusive: 20.7% | 
36 | Cc1onc(-c2ccc(Cl)cc2)c1-c1ccnn1S(=O)(=O)c1cccc(C(F)(F)F)c1 |  | inconclusive: -9.55% | 
37 | Cc1ccc(COc2ccc(/C=N/O)cc2)cc1 | inconclusive: 1.16 µM [activator, partial curve] |  | 
38 | O=C(Cc1cccs1)NNC(=S)NC(=O)c1ccccc1 |  | inconclusive: 21.1% | 
39 | COc1cc(C(C)=O)ccc1OCC(=O)c1cc(C)n(C2CC2)c1C |  | inconclusive: 46.9% | 
40 | O=C(CN1CCN(c2ccccn2)CC1)Nc1cccc(S(=O)(=O)N2CCOCC2)c1 | inconclusive: 23.1 µM [cytotoxic, partial curve] |  | 
41 | O=C(Nc1cccnc1)c1cc(F)c(F)cc1Cl |  | inconclusive: -22% | 
42 | COc1ccc(N2CCN(S(=O)(=O)CCNC(=O)c3cc(=O)c4ccccc4o3)CC2)cc1 | inconclusive: 18.4 µM [activator, partial curve] |  | 
43 | CCCN(C(=O)CCNC(=O)c1ccc(Cl)cc1)c1c(N)n(Cc2ccccc2)c(=O)[nH]c1=O |  | inconclusive: 4.06% | 
44 | CCN(CC)S(=O)(=O)c1cc(C(=O)Nc2cc(Cl)ccc2N2CCN(C)CC2)ccc1Cl | inconclusive: 6.51 µM [rising, single point] |  | 
45 | Cc1cccc2cc(C(c3nnnn3CC3CCCO3)N3CCCc4ccccc43)c(=O)[nH]c12 (configuration not stated) |  | inconclusive: 5.58% | 
46 | COc1cc(OC)cc(C(=O)NC2CC3CCC(C2)N3C)c1 (configuration not stated) |  | inconclusive: 11% | 
47 | CN(c1ccccc1)S(=O)(=O)c1cccc(C(=O)NNC(=O)c2ccccc2)c1 |  | inconclusive: 65.2% | 
48 | CCOC(=O)c1sc(NC(=O)Nc2ccccc2Cl)cc1C | inconclusive: 29.1 µM [falling, single point] |  | 
49 | C=CCN1C(C(=O)c2ccccc2)=C(OC(=O)COc2ccccc2)c2ccccc2S1(=O)=O | inconclusive: 29.1 µM [falling, single point] |  | 
50 | CCSc1nnc(NC(=O)c2ccco2)s1 |  | inconclusive: 13.7% | 
51 | Cc1cc(C)c(S(=O)(=O)N2CCCC(C(=O)NCc3ccccn3)C2)c(C)c1 (configuration not stated) |  | inconclusive: -44.9% | 
52 | CC1=NNC(=O)C1CCC(=O)N/N=C/c1ccc(Cl)cc1Cl (configuration not stated) | inconclusive: 4.11 µM [activator, single point] |  | 

Row | SMILES | Potency | lipid storage change, negative = inhibition | outcome
53 | Cc1cc(NC(=O)c2ccc3c(c2)OCO3)no1 | inconclusive: 0.517 µM [activator, full curve, poor fit] |  | 
54 | COc1ccc(OC)c2sc(NC(=O)C3CC3)nc12 |  | inconclusive: 62.7% | 
55 | Cc1cc(C(C)(C)C)cc(C)c1COC(=O)c1cccnc1 |  | inconclusive: -3.57% | 
56 | CC(=O)c1cccc(NC(=O)N[C@@H](CC(C)C)C(=O)O)c1 | inconclusive: 20.6 µM [falling, single point] |  | 
57 | O=c1c2ccccc2ccc2ccc(P(=O)(O)O)cc12 | inconclusive: 1.16 µM [activator, single point] |  | 
58 | CC(OC(=O)CC1CCCCC1)C(=O)Nc1ccc(F)cc1 (configuration not stated) | inconclusive: 0.651 µM [falling, single point] |  | 
59 | S=c1[nH]nc(-c2ccccn2)n1/N=C/c1cccc2ccccc12 |  | inconclusive: 110% | 
60 | Cc1ccc(S(=O)(=O)NCCC(=O)NNC(=O)C2COc3ccccc3O2)cc1 (configuration not stated) |  | inconclusive: -1.4% | 
61 | CCOC(=O)/C=c1\s/c(=C\c2ccccc2OC)c(=O)n1CC(=O)N1CCOCC1 |  | inconclusive: 41.2% | 
62 | CN(C)S(=O)(=O)c1cccc(CNCC2COc3ccccc3O2)c1 (configuration not stated) |  | inconclusive: 9.48% | 
63 | CC1(C)OC(=O)C=C[C@]2(C)[C@H]3CC[C@@]4(C)[C@H](c5ccoc5)OC(=O)[C@H]5O[C@]54[C@]3(C)C(=O)C[C@@H]12 |  | inconclusive: -34.3% | 
64 | CCn1cc(C(=O)NCC2CCCO2)c(=O)c2cc(S(=O)(=O)N3CCCCCC3)ccc21 (configuration not stated) |  | inconclusive: -31.2% | 
65 | Cc1nn(-c2ccccc2)c(Cl)c1C1C(C#N)=C(N)OC2=C1C(=O)CCC2 (configuration not stated) |  | inconclusive: 7.47% | 
66 | CCOc1ccccc1N(C(=O)CNC(=O)c1ccco1)C(C(=O)NC1CCCC1)c1ccncc1 (configuration not stated) |  | inconclusive: -23.8% | 
67 | Nc1ncnc(Sc2ccccc2)c1[N+](=O)[O-] | inconclusive: 18.4 µM [falling, single point] |  | 
68 | CCOCCCNC(=O)c1ccc(OC(C)=O)cc1 |  | inconclusive: -39.8% | 
69 | Cc1cccc(N(C)C(=O)CN(C)S(=O)(=O)c2ccc3c(c2)c(=O)n(C)c(=O)n3C)c1 | inconclusive: 0.146 µM [falling, full curve, poor fit] |  | 
70 | O=C1CC(NS(=O)(=O)c2ccc(F)cc2)CN1c1ccc2c(c1)OCCO2 (configuration not stated) |  | inconclusive: 8.98% | 
71 | CN1CCN(CCCN2c3ccccc3Sc3ccc(S(=O)(=O)N(C)C)cc32)CC1 |  | inconclusive: 13.6% | 
72 | Cc1ccc2nc(-c3ccccc3)cc(C(=O)NCC(c3ccco3)N(C)C)c2c1 (configuration not stated) |  | inconclusive | 
73 | CCOc1ccc(C(=O)NCCc2ccccc2)cc1 | inconclusive: 29.1 µM [cytotoxic, single point] |  | 
74 | O=C(c1ccc2snnc2c1)N1CCCC1 | inconclusive: 6.51 µM [falling, partial curve, poor fit] |  | 
75 | CS(=O)Cc1cc(Oc2ccccc2)nc(-c2ccncc2)n1 (configuration not stated) | inconclusive: 29.1 µM [rising, single point] |  | 
76 | COc1cccc(CNC(=O)CCCn2ncn3c(cc4occc43)c2=O)c1 |  |  | inactive [at 46.1 µM]
77 | c1ccc(Cc2nnc3sc(Nc4ccccc4)nn23)cc1 | inconclusive: 0.517 µM [activator, full curve, poor fit] |  | 
